Assay: peptide made by a vendor (Fmoc solid-phase peptide synthesis; Rink resin; HBTU/DIPEA)
Conditions: whole synthesis, 214 nm

Acetyl-IAQ(E1)LRRIGD(E2)F-amide
final HPLC purity: 95% pure

Reference: patent US20070197430A1 (priority 2004, published 2007)
